This assay addresses T1, FLAG-USP33 (UniProt Q8TEY7).
T1 sequence: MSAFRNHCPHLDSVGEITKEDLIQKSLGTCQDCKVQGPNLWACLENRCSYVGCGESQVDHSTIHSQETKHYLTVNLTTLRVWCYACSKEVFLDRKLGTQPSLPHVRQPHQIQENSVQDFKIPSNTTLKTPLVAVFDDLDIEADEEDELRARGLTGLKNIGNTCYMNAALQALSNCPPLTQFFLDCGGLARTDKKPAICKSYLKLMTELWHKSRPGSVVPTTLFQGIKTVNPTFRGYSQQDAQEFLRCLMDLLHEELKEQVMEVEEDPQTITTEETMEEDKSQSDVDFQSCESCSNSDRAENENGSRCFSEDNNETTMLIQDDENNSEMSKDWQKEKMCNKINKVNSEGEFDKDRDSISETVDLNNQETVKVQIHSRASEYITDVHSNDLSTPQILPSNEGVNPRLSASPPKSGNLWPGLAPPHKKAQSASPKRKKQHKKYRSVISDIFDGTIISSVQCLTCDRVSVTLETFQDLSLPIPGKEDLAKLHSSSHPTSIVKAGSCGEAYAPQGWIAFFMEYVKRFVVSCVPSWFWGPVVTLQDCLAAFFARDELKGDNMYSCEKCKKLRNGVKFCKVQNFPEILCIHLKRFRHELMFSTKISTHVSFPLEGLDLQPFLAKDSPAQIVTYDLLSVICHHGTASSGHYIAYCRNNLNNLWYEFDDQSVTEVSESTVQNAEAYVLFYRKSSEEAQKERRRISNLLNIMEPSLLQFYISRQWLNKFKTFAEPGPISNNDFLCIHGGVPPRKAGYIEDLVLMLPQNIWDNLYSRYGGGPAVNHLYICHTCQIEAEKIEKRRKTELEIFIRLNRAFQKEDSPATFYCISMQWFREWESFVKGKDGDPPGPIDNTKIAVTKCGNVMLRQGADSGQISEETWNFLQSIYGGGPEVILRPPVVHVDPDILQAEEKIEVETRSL
The assay can be described thus: co-IP; HEK-293 cells expressing D3R, transfected; treated with vehicle, 30 nM DA or 100 nM quinpirole (once or washed and re-challenged, desensitization protocol); also Con-KD and Mdm2-KD cells; RIPA lysates, anti-M2 FLAG agarose beads overnight at 4 °C; co-IP blotted for HA or importin β1.

These are yes or no findings as the source states them, for the method shown. Binding seen in cells or lysates may run through a third protein. Binding calls can cover weak binding; strength is not graded here. Sequences can lack the tags named with a protein.

Regarding HA-Akt (enzyme), the binding entry is “binds”.

These data come from publication PMC9854190.
